Values are the deposited “Percent Effect”, in %. The record does not define 0% and 100%; most values in the screen are far below 50% and negative numbers occur (in some assays of this library far below -100). The compounds are a random part of those screened.

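Whole-parasite assay of Trypanosoma brucei over 72 hours; the read-out is not stated. Concentration: 30 µM. The record gives no direction; compounds that gave an IC50 in retests scored well above the rest, so higher reads as stronger inhibition. Values scatter widely below zero; nearly all retest evidence comes from the higher of the two concentrations used. Of about 64,000 compounds tested this way, about 940 (1.5%) reached 50% or more in at least one test.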

| # | Compound | percent effect |
|---|---|---|
| 1 | `Cc1ccccc1SCC(=O)NC1CCC(O)CC1` (centres unmarked) | -19.76% |
| 2 | `COCCn1cnc(-c2cc(C(=O)NC(C)C)c3ccccn23)c1` | -80.86% |
| 3 | `Cc1ncc2c(n1)CN(Cc1ncc(C(C)(C)C)o1)CC2` | -573.3% |
| 4 | `O=S(=O)(Cc1ccon1)N1CCN(c2ccncc2Cl)CC1` | 8.011% |
| 5 | `COc1cc(CNCCn2cc(C)cn2)c2c(c1)CC(C)O2` (centres unmarked) | 49.7% |
| 6 | `CCCS(=O)(=O)c1ncc(CN2CCC(C)CC2)n1CC1CCCO1` (centres unmarked) | -16.57% |
| 7 | `Cc1ccc(C(=O)N2CCN(c3ncnc4nc(N)ccc34)CC2)o1` | 0.16% |
| 8 | `COc1cc(C)nc(N2CCN(C(C)c3nc(C4CC4)no3)CC2)n1` (centres unmarked) | -23.88% |
| 9 | `COCCN(Cc1sccc1C)C(=O)C1CCCN(C(N)=O)C1` (centres unmarked) | -11.55% |
| 10 | `C1CCC(c2nc3c(c(N4CC(N5CCOCC5)C4)n2)CCNCC3)C1` | 9.856% |
| 11 | `CC(C)Oc1ccccc1CNC(=O)N(C)CC(F)F` | -49.99% |
| 12 | `Cc1nnc(CN2CCN(C)C3(CCNC(=O)CC3)C2)s1` (centres unmarked) | -13.93% |
| 13 | `Cc1ccc(C)c(-n2ncc(NC(=O)NC3(C)CCOC3)c2C)c1` (centres unmarked) | -18.52% |
| 14 | `CC(C)OC[C@H]1CCC[C@]12CN(S(=O)(=O)c1cn(C)cn1)CCO2` | 0.856% |
| 15 | `COCCN1CCC2(CCCN(C(=O)c3cnoc3C)C2)C1=O` (centres unmarked) | -16.73% |
| 16 | `Cc1ccc(C2(O)CCN(C(=O)CCn3c(C)cccc3=O)CC2)nc1` | -29.1% |
| 17 | `CCn1nc2c(cc1=O)CN(c1ncnc3sccc13)CC2` | 10.94% |
| 18 | `CCN1CCN(CCC(=O)NC2CC(c3cccc(Cl)c3)C2)CC1` (centres unmarked) | -29.76% |
| 19 | `CC(C)=CCS(=O)(=O)Cc1nc(C(C)C)no1` | -28.01% |
| 20 | `Cc1cccc(CO[C@H]2CO[C@@]3(CCN(S(=O)(=O)N(C)C)C3)C2)n1` | -30.16% |
| 21 | `CC(C)(CO)Nc1ccc(-c2nc(-c3ccccc3F)no2)cn1` | 4.822% |
| 22 | `CN(CCc1ccccc1)c1cnn(CC(=O)N2CCOCC2)c(=O)c1` | 4.286% |
| 23 | `Cc1cc(C)nc(NC2CCN(CCOC(C)C)CC2)n1` | 2.676% |
| 24 | `O=C(NCC(O)c1cccs1)c1sccc1OC(F)F` (centres unmarked) | 6.023% |
| 25 | `Cc1ccc(S(=O)(=O)N(CC2CCOC2)C2CC2)cc1N(C)C` (centres unmarked) | -32.27% |
| 26 | `CCN1C(=O)CCC12CCN(C(=O)c1ccco1)CC2` | -3.121% |
| 27 | `Cc1cc(C(=O)N2CCc3ncnc(-c4cnn(C)c4)c3CC2)c(C)o1` | -50% |
| 28 | `O=C(CCc1ccco1)Nc1ncn(CC(=O)N2CCCCCC2)n1` | -33.91% |
| 29 | `CN(C)S(=O)(=O)N1CCN(C(=O)OC(C)(C)C)CC12CCCCC2` | -37.31% |
| 30 | `[H][C@]12CCN(C(=O)C3CC=CC3)[C@@]1([H])CC[C@H](COCC1CCOCC1)O2` | -56.1% |
| 31 | `[H][C@@]12CCC(=O)N(CCCOC)[C@]1([H])CCN(Cc1ccc3nonc3c1)C2` | -6.208% |
| 32 | `Cc1nc(NC2CCCC2)cc(C2CCN2C(=O)c2ccccc2)n1` (centres unmarked) | -0.2397% |
| 33 | `[H][C@]12CCCN(c3ncc(C)cn3)[C@@]1([H])CN(S(C)(=O)=O)C2` | -13.36% |
| 34 | `[H][C@@]12CS(=O)(=O)C[C@]1([H])N(Cc1ccc(C)c(C)c1)CCN2CC1CC1` | -24.94% |
| 35 | `Cc1ncc(C(=O)N2CCCC2c2c(C)nn(C)c2C)s1` (centres unmarked) | -31.3% |
| 36 | `Cl.O=C(c1ccnc(C2CCNCC2)c1)N1CCCOCC1` | -15.69% |
| 37 | `CCN(Cc1ccco1)C(C)c1nc(C(C)C)no1` (centres unmarked) | -40.13% |
| 38 | `Cc1cccc2[nH]c(C3CCN(C(=O)c4ccc[nH]4)CC3)nc12` | -10.92% |
| 39 | `COCCN(Cc1ccoc1)C(=O)c1ccc(Cl)s1` | 13.56% |
| 40 | `[H][C@]12CNC[C@@]1(C(=O)NCCCc1ccccc1)CN(S(C)(=O)=O)C2` | 11.7% |
| 41 | `COc1ccc(OCc2nc(C(=O)N3CC[C@H](O)[C@@H](O)C3)co2)cc1` | -6.781% |
| 42 | `CS(=O)(=O)N1CCN(CC(O)COc2ccc(F)cc2)CC1` (centres unmarked) | -9.433% |
| 43 | `CNC(=O)c1ccc(C2CN(c3cc(C)nc(N)n3)CCO2)nc1` (centres unmarked) | 1.53% |
| 44 | `COC1CN(C(=O)OCC(C)C)CCC(=O)N(C)c2ccccc21` (centres unmarked) | 5.808% |
| 45 | `CCc1nc(C)c(C2CC(=O)Nc3c2c(-c2ccccn2)nn3C)[nH]1` (centres unmarked) | -11.78% |
| 46 | `CCOCC1CC2(CCN(C(=O)c3ccccc3F)CC2)CO1` (centres unmarked) | 10.33% |
| 47 | `Cc1nc(C2CCNCC2)cc(N(C)CCc2cn[nH]c2)n1` | 7.388% |
| 48 | `CC(=O)N1CCN(C(=O)C2SCCc3sccc32)CC1` (centres unmarked) | -43.78% |
| 49 | `Cc1ccc(CN2CCc3[nH]nc(C(=O)N(C)C)c3C2)o1.O=C(O)C(F)(F)F` | -7.173% |
| 50 | `Cc1ccsc1C(=O)N1CCCn2nnc(Cn3cccn3)c2C1` | -7.204% |
| 51 | `O=C(O)C(F)(F)F.O=C(O)C(F)(F)F.[H][C@@]12OCCN(Cc3csc(C)n3)[C@@]1([H])CC[C@@H]2OCc1ccccn1` | 6.129% |
| 52 | `CNS(=O)(=O)CC1CCCN1C(=O)c1cccc(Cl)c1` (centres unmarked) | 12.81% |
| 53 | `O=C(O)C(F)(F)F.O=C(c1ccncc1)N1CCCC2(COCCN(c3ccccc3)C2)C1` (centres unmarked) | -12.36% |
| 54 | `Cc1cnc2n(c1=O)CC(C(=O)Nc1cccc3cccnc13)CS2` (centres unmarked) | -36.81% |
| 55 | `O=C(CCC(=O)c1ccccc1)NC1(C(=O)NCC2CC2)CCCC1` | 3.165% |
| 56 | `Cc1ccc(N2CCCC(NCC(=O)NC3CCOCC3)C2)nn1` (centres unmarked) | 28.63% |
| 57 | `CCCC1CN(CC(C)C)C(=O)c2cccnc2O1` (centres unmarked) | -35.11% |
| 58 | `O=C1Nc2ccccc2/C1=C1\CCCCCN1` | -49.5% |
| 59 | `CC(C)c1nc(CN2CCOC(Cn3cccn3)C2)no1` (centres unmarked) | -18.19% |
| 60 | `CN1CCN(Cc2ccc(-c3ccc4[nH]ccc4c3)nc2)CC1` | 12.7% |
| 61 | `COc1ccc(C(=O)NCc2ccon2)cc1F` | -4.368% |
| 62 | `CCCc1n[nH]c(C2CN(CC(=O)N(C)Cc3ccco3)CCO2)n1` (centres unmarked) | 8.106% |
| 63 | `COCC(=O)Nc1ccc(-c2noc([C@@H]3CCCN3C)n2)cn1` | -17.98% |

For reference, 5 entries once more:

| Compound | percent effect |
|---|---|
| `Cc1cnc2n(c1=O)CC(C(=O)Nc1cccc3cccnc13)CS2` (centres unmarked) | -36.81% |
| `O=C(O)C(F)(F)F.O=C(O)C(F)(F)F.[H][C@@]12OCCN(Cc3csc(C)n3)[C@@]1([H])CC[C@@H]2OCc1ccccn1` | 6.129% |
| `Cc1ncc(C(=O)N2CCCC2c2c(C)nn(C)c2C)s1` (centres unmarked) | -31.3% |
| `O=C(CCc1ccco1)Nc1ncn(CC(=O)N2CCCCCC2)n1` | -33.91% |
| `COCCN(Cc1ccoc1)C(=O)c1ccc(Cl)s1` | 13.56% |

From ChEMBL document CHEMBL3988442, “University of Dundee, Small-Polar-MMV Screening Library” (2021).